Measurements reported in PubChem BioAssay AID743255 (National Center for Advancing Translational Sciences (NCATS), 2014).
Screen size: about 390,000 compounds; about 910 (0.23%) were called active. The shares of active, inactive and inconclusive entries below differ from those in the screen. The call rests on the fitted dose curve; in most records, active means well fitted inhibition curve with a large enough effect; inconclusive means small, poorly fitted or top-dose-only effect; inactive means no such curve, though single readings can be large or run the other way. Potencies of inconclusive entries are doubtful fits and often do not repeat.

Amino acid sequences for entries named in this document (tags omitted). A change or cut given only in a name is not applied to a line headed by its entry.
UniProt O94782: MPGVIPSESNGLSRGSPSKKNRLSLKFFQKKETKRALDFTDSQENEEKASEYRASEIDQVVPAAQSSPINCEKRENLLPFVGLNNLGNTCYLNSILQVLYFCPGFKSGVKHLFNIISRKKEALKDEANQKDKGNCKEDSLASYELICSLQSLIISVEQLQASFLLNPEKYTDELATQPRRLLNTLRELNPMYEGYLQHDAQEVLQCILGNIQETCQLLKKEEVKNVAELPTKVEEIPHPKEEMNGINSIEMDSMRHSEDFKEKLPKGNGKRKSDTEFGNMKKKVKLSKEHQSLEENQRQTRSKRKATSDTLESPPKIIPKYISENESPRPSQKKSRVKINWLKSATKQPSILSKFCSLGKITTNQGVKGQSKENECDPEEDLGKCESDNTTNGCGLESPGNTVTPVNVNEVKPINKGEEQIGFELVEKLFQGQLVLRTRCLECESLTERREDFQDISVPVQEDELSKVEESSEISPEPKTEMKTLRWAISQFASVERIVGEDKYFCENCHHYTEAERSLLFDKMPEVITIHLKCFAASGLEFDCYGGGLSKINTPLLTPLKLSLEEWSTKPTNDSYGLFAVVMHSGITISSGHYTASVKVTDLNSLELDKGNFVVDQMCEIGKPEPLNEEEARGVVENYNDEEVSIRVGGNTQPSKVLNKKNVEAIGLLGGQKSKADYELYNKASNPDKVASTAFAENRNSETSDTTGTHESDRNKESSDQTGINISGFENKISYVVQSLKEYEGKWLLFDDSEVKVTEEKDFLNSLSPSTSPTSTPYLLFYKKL

These compounds were tested against Ubiquitin carboxyl-terminal hydrolase 1 (Homo sapiens) (UniProt O94782) (assay: Inhibitors of USP1/UAF1: Primary Screen). Settings: recombinant USP1/UAF1, Ub-Rhodamine cleavage fluorescence; activity change, negative = inhibition: at 57.1 µM (top of the series).
Outline: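 1 nM enzyme complex + cpd, 15 min RT; start with Ub-Rho 150nM final; kinetic fluorescence ex 480/em 540, 6 reads q60 s. Buffer 50mM HEPES pH 7.8, 0.5mM EDTA, 0.1 mg/ml BSA, 1mM TCEP, 0.01% Tween-20.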
Further: nearly all actives have a fitted effect of over 60% in size.
On the % scale 0 is the no-effect control and ±100 the full control effect; potency means the concentration at half of the fitted maximal effect.

Potency, inconclusive:
Cc1ccc(C)c(N2CCN(CCCNC(=O)Cn3cccc3C(=O)c3ccccc3)CC2)c1 10 µM [inhibitor, partial curve, poor fit], Cc1ccccc1-n1c(O)c(C=NC2CCS(=O)(=O)C2)c2ccccc2c1=O (stereo not given) 28.2 µM [inhibitor, partial curve], COc1ccccc1OC(C)C(=O)Nc1cccc(-c2nc3ccccc3o2)c1 (stereo not given) 35.5 µM [inhibitor, single point], Cc1cccc(N2C(=O)/C(=C\c3ccc(OC(F)F)cc3)c3ccccc3C2=O)c1 5.62 µM [inhibitor, full curve], O=C(c1cccc(Oc2ccc([N+](=O)[O-])cc2Cl)c1)N1CCCCC1 3.55 µM [inhibitor, full curve], C[C@@]12CCC=C[C@H]1[C@H](c1ccccc1Br)N(Cc1ccccc1)C2=O 2 µM [inhibitor, full curve, poor fit], COc1cc2ccccc2cc1-c1nnc(COc2ccccc2)o1 44.7 µM [inhibitor, partial curve], COc1cccc2c1C(=O)C=C(C)C2=O 35.5 µM [inhibitor, partial curve, poor fit], Cc1csc(NC(=O)c2sc3nc(-c4cccs4)ccc3c2N)n1 28.2 µM [inhibitor, partial curve, poor fit], O=C(NCc1ccco1)c1ccc2ccccc2n1 8.91 µM [inhibitor, single point], COC(=O)c1sccc1S(=O)(=O)N(CC(=O)NCc1ccc(C)cc1)c1ccc(C)cc1 398 µM [inhibitor, partial curve, poor fit], COC(=O)[C@]1(C)N[C@H](CN(C)C(=O)Nc2ccc(Cl)cc2)[C@@H]2C(=O)N(C)C(=O)[C@@H]21 0.126 µM [inhibitor, full curve, poor fit], COc1ccc(C2C=C(c3ccc(Cl)c(Cl)c3)Nc3ncnn32)cc1 (stereo not given) 8.91 µM [inhibitor, partial curve, poor fit], COc1ccc(N2CCN(CCCNC(=O)Nc3ccccc3)CC2)cc1 0.708 µM [inhibitor, full curve], O=C(Nc1ccc2c(c1)OCO2)OCc1ccccc1 28.2 µM [inhibitor, single point], CCOC(=O)Cc1cn(C(=O)OC(C)(C)C)c2ccccc12 6.31 µM [inhibitor, partial curve], Cc1nn(C)cc1CNC(=O)c1cnn2c1NC(c1ccc(Br)cc1)CC2C(F)(F)F (stereo not given) 1 µM [inhibitor, full curve, poor fit], O=C(COC(=O)C1CCN(S(=O)(=O)c2ccc(Cl)c(C(F)(F)F)c2)CC1)NCC1CCCO1 (stereo not given) 7.94 µM [inhibitor, partial curve, poor fit], Cc1nnc(NC(=O)CSc2ncn(-c3ccccc3)n2)s1 5.01 µM [inhibitor, partial curve], CC(=O)Nc1ccc(SCC(=O)Nc2ccccc2N2CCOCC2)cc1 3.16 µM [inhibitor, full curve, poor fit], COc1cccc(C2C3CN(C)CC=C3C(C#N)=C(N)C2(C#N)C#N)c1OC (stereo not given) 25.1 µM [inhibitor, partial curve], COc1cc(/C=C2/C(=O)NN(c3cccc(C)c3)C2=O)ccc1OC(=O)c1ccco1 44.7 µM [inhibitor, partial curve, poor fit], C/C(=N\NC(=O)c1nnn(-c2nonc2N)c1CSc1ccc(C)cc1)c1ccco1 89.1 µM [inhibitor, partial curve, poor fit], Cc1ccc(N/C=C/C(=O)c2cccs2)cc1 11.2 µM [inhibitor, full curve, poor fit], C=CCN1C(=O)/C(=C/c2ccc(-c3ccc(F)cc3)o2)SC1=S 1.58 µM [inhibitor, full curve], CCc1ccc(NC(=O)Cn2c(=O)n(CCCCC(=O)NCCc3ccc(Cl)cc3)c(=O)c3ccccc32)cc1 79.4 µM [inhibitor, partial curve], N#Cc1c(-c2ccccc2)nc(SCc2ccc(Cl)cc2)[nH]c1=O 35.5 µM [inhibitor, partial curve, poor fit], COc1cccc(N=Nc2c(=O)[nH]n3c(=O)c4c([nH]c23)CCC4)c1 28.2 µM [inhibitor, partial curve, poor fit], O=C(O)c1ccc(NC(=O)c2cccc(C(=O)Nc3ccc(C(=O)O)cc3)n2)cc1 35.5 µM [inhibitor, partial curve], C=CCn1c(SCc2ccc(F)cc2)nc2c1c(=O)[nH]c(=O)n2C 0.708 µM [inhibitor, full curve, poor fit], O=C(Cc1csc(-c2ccccc2)n1)NCC(=O)Nc1ccc(F)c(F)c1F 1.12 µM [inhibitor, full curve, poor fit], CN(C(=O)COC(=O)C12CC3CC(CC(Cl)(C3)C1)C2)c1ccccc1 5.62 µM [inhibitor, full curve], OCc1ccccc1SSc1ccccc1CO 7.08 µM [inhibitor, single point], C[C@H](CO)N1C[C@H](C)[C@H](CN(C)Cc2cncnc2)Oc2cc(Br)ccc2S1(=O)=O 5.62 µM [inhibitor, partial curve], CCCCOc1cc(C(=O)NCCN(CC)CC)c2ccccc2n1 44.7 µM [inhibitor, partial curve], C[C@@H]1CN=C2N(CCNC(=O)CCC3CCCCC3)[C@H](Cc3ccc(O)cc3)CN21 8.91 µM [inhibitor, partial curve, poor fit], CN(C)c1ccc(NC2=C(Cl)C(=O)c3ccccc3C2=O)cc1 28.2 µM [inhibitor, partial curve], COc1cccc(OCc2nc(-c3ccc(Br)o3)no2)c1 1.41 µM [inhibitor, full curve, poor fit], Cc1ccc(CNc2nnc(C)c3nnn(Cc4ccc(F)cc4)c23)cc1 2 µM [inhibitor, partial curve], CCOc1ccc(-c2cc3nc(C4CCN(C(=O)OC(C)(C)C)CC4)c(C(=O)Nc4cccc(CC)c4)cn3n2)cc1 8.91 µM [inhibitor, partial curve, poor fit], C=CC[C@@H](CC(=O)OC(C)(C)C)C(=O)OC[C@H]1CCCN1C(=O)[C@@H](CC=C)CC(=O)NCCO 8.91 µM [inhibitor, partial curve, poor fit], CCCCc1ccc(NS(=O)(=O)c2cccs2)cc1 31.6 µM [inhibitor, partial curve], COc1cccc(CN2C(=O)c3ccccc3Sc3ccc(C(=O)OCc4ccco4)cc32)c1 2.51 µM [inhibitor, full curve, poor fit], COc1ccc(OCC(=O)O/N=C(\N)c2ccc(OC)c(OC)c2)cc1 44.7 µM [inhibitor, partial curve, poor fit], CCC(=O)OCCNc1cc(Sc2nc3ccccc3s2)c2nonc2c1[N+](=O)[O-] 31.6 µM [inhibitor, single point]

Potency, active:
Cc1coc2c1C(=O)C(=O)c1c-2ccc2c(C)cccc12 28.2 µM

Activity change, negative = inhibition, inactive:
COc1ccc(Nc2cc(C(=O)NCCCN3CCOCC3)c3ccccc3n2)c(OC)c1 -18.4%, COc1ccc(S(=O)(=O)NC(CCSC)C(=O)NC2CCCCC2)cc1 (stereo not given) -12%, COc1cccc(NC(=O)Cn2c(=O)n(Cc3ccccc3)c(=O)c3ccccc32)c1 -12.5%, Cc1ccc(N(CC(=O)Nc2ccc(Cl)cc2)S(=O)(=O)c2cccc3nonc23)cc1 -24.8%, COc1ccc(CN(C)C[C@H]2OCCCC[C@@H](C)Oc3ccc(NS(C)(=O)=O)cc3C(=O)N([C@H](C)CO)C[C@@H]2C)cc1 -22.9%, COc1ccc(CCNCC(O)COc2cccc(Br)c2)cc1OC (stereo not given) -12.9%, COc1ccc(-c2[nH]c(-c3ccccc3)nc2SCC(=O)Nc2nccs2)cc1 -2.21%, O=C1CCCc2cc(S(=O)(=O)N3CCCC(C(=O)NCc4ccc(Cl)cc4)C3)ccc2N1 (stereo not given) -31.9%, COc1cc(C)c(NC(=O)C2CCN(S(=O)(=O)c3cccs3)CC2)cc1OC -2.01%, COc1ccc(Cl)cc1C(=O)Nc1cccc(-c2ccc3nncn3n2)c1 -23.2%, COC(=O)C1=C(C(=O)c2ccccc2)C(c2ccccc2)n2nnnc2N1 (stereo not given) -15.1%, Cc1ccc(N(CC(=O)N2CCCCCC2)S(C)(=O)=O)cc1Cl -15.2%, CCOc1ccc(-c2nc3c(c(SCC(=O)N4CCCCC4)n2)Cc2cccc(OC)c2O3)cc1 -5.42%, CCOC(=O)c1[nH]c2ccccc2c1NC(=O)c1ccc(Br)cc1 -14.7%, COc1ccccc1C(=O)Nc1cccc(NC(=O)c2ccccc2C)c1 -14.1%, CCN(CC(=O)NC(C)(C)C)Cc1nc2c(Br)cc(Br)cc2c(=O)[nH]1 -1.93%, CCc1ccc(S(=O)(=O)Nc2ccc(O)c3ccccc23)cc1 -11.9%, C=CCn1c(=O)c(C(=O)OCC)c(O)c2ccccc21 -11.6%, Cn1c(N2CCOCC2)cc(=O)n(C)c1=O -12%
